Measured values from PubChem BioAssay AID743399 (Broad Institute, 2014).
Inconclusive means that the source gave no clear call. Such entries were picked first, then a sample of the others. Active and inactive are the calls of the source.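 How the source made its calls: active means compounds lowering the signal whose fitted AC50 is no more than twice their top tested dose; inconclusive means flat curve with activity from -70 to -30%, or bad fit; inactive means the rest.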

Test: miR-122 activators in Huh7 reporter cells, dose response, miR-122 modulator project, cell-based, psiCHECK-miR122, dry powder (AID 743399)
Details: Huh7 psiCHECK-miR122 Renilla luciferase reporter, 48 h; at 35 µM (top of the series)

Compound | activity change, negative = miR122 activation
Cc1cccc(NC(=O)Nc2ccc3c(c2)C(=O)N(C)[C@@H]2CC[C@@H](CC(=O)NCc4ccccc4Cl)O[C@H]2CO3)c1 | inconclusive: -47.8%
CN1C(=O)c2cc(NC(=O)c3cccc(F)c3)ccc2OC[C@H]2O[C@@H](CC(=O)O)CC[C@@H]21 | inactive: 20.2%
CCN(CC)C(=O)c1cccc(NC(=O)c2ccc(Cl)cc2Cl)c1 | inconclusive: -15.4%
CN(CC(=O)Nc1cccc(Cl)c1)S(=O)(=O)c1ccc2c(c1)n(C)c(=O)c(=O)n2C | inconclusive: -30.8%
C[C@@H]1CN([C@@H](C)CO)S(=O)(=O)c2ccc(C#Cc3ccncc3)cc2O[C@H]1CN(C)C(=O)C1CCOCC1 | inconclusive: -50%
CN(C)CCCOc1nn(Cc2ccccc2)c2ccccc12 | inconclusive: -53.8%
C[C@H]1CN([C@@H](C)CO)C(=O)c2cc(C#Cc3ccccc3F)cnc2O[C@@H]1CN(C)C(=O)C1CCCCC1 | inconclusive: -54.3%
O=C(NCCC1=CCCCC1)c1ccc2c(c1)sc1nc(-c3ccccc3)cn12 | inconclusive: -30.8%
O=C(c1ccc(CN2CCOCC2)cc1)N1CCc2ccccc21 | inactive: 15.4%
CO[C@@H]1CN(C)C(=O)c2cc(NS(=O)(=O)c3ccc(Oc4ccccc4)cc3)ccc2OC[C@H](C)NC[C@@H]1C | inactive: 8.7%
O=C(CN=C1NS(=O)(=O)c2ccccc21)Nc1ccccc1N1CCCCCC1 | inactive: -23.1%
COc1ccc(-c2cnc3c(c2)C(=O)N([C@@H](C)CO)C[C@H](C)[C@H](CN(C)S(=O)(=O)c2ccc(OC)cc2)O3)cc1 | inconclusive: -47.8%
